For one experiment, the target named is T1, GFP-RIG-I (UniProt O95786).
T1 sequence: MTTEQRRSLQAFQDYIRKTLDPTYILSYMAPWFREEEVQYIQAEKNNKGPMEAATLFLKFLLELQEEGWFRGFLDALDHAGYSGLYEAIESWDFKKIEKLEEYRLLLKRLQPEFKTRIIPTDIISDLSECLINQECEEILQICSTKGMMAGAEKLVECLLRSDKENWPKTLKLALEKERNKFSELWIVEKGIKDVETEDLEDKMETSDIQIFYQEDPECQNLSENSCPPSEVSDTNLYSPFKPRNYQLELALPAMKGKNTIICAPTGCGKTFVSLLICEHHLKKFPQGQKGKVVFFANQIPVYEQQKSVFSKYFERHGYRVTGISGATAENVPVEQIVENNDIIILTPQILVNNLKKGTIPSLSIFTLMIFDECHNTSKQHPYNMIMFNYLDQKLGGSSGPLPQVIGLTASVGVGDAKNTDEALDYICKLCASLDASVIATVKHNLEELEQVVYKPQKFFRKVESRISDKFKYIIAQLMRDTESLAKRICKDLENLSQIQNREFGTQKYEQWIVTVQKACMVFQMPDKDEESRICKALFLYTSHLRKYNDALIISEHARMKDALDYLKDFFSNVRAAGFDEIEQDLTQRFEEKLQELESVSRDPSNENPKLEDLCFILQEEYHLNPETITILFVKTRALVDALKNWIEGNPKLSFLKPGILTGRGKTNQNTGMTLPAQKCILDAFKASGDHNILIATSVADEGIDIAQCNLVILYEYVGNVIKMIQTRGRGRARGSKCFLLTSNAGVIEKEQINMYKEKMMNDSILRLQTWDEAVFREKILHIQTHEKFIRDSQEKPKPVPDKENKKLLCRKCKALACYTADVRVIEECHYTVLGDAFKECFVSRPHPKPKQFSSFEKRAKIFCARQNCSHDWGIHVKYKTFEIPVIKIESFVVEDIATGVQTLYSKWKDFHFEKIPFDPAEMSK
As to the kind of experiment: co-IP; reciprocal co-IP from HEK293T cells co-transfected with GFP-RIG-I and Myc-MEX3A (1:0.5); Triton buffer (50 mM Tris-HCl pH 7.5, 250 mM NaCl, 50 mM NaF, 1 mM EDTA, 0.1% Triton X-100); antibody overnight at 4 °C, Protein agarose beads; immunoblot. (In western blotting, separated proteins are transferred to a membrane and probed.)

Experiment [1] concerns the target T2, endogenous RIG-I (human (endogenous in A-172, T98G and GB tissue)) (UniProt O95786).
T2 sequence: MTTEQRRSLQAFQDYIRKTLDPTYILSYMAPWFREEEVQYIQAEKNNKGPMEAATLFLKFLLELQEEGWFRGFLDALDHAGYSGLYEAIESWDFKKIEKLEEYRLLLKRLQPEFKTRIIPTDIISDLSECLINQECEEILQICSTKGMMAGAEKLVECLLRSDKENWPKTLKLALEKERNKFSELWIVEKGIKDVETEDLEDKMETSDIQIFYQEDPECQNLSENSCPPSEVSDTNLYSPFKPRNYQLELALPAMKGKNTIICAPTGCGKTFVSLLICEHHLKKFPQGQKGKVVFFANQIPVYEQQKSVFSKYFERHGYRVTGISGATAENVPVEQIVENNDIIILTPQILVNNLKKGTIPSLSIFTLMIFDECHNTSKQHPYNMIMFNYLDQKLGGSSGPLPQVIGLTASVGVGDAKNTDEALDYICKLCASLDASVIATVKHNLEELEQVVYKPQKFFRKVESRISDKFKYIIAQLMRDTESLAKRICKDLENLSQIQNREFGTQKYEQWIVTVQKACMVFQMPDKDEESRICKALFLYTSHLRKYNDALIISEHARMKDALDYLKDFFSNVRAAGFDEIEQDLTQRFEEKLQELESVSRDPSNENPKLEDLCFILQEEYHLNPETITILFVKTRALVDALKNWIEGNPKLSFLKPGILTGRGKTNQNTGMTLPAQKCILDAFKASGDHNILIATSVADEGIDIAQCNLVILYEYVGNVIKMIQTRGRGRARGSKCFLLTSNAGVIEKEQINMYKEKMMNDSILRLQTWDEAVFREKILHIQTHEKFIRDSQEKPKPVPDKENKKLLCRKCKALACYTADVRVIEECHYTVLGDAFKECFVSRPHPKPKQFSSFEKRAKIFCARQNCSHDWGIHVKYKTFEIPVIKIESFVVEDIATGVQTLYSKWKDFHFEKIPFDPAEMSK
As to the kind of experiment: co-IP; endogenous proteins in a GB clinical sample, mechanically disrupted in Triton buffer, sonicated, centrifuged; immunoprecipitation and immunoblot as for cells.

In experiment [2] the target is T2, endogenous RIG-I (human (endogenous in A-172, T98G and GB tissue)). As to the kind of experiment: co-IP; endogenous proteins in A-172 and T98G GB cell lines; Triton buffer (50 mM Tris-HCl pH 7.5, 250 mM NaCl, 50 mM NaF, 1 mM EDTA, 0.1% Triton X-100); antibody or control IgG overnight at 4 °C, Protein agarose beads; immunoblot.

Results are given in words; binding and its absence hold for the method and conditions named. In cells and extracts the contact can be indirect. Some results given as binding are weak or reduced against the parent protein; the word gives no strength. For part of these data: Where a sequence is shown, tags or fusion partners need not be part of it.

B1: Myc-MEX3A (protein, UniProt A1L020 1-520)
chain: MPSLVVSGIMERNGGFGELGCFGGSAKDRGLLEDERALQLALDQLCLLGLGEPPAPTAGEDGGGGGGGAPAQPAAPPQPAPPPPPAAPPAAPTAAPAAQTPQPPTAPKGASDAKLCALYKEAELRLKGSSNTTECVPVPTSEHVAEIVGRQGCKIKALRAKTNTYIKTPVRGEEPVFMVTGRREDVATARREIISAAEHFSMIRASRNKSGAAFGVAPALPGQVTIRVRVPYRVVGLVVGPKGATIKRIQQQTNTYIITPSRDRDPVFEITGAPGNVERAREEIETHIAVRTGKILEYNNENDFLAGSPDAAIDSRYSDAWRVHQPGCKPLSTFRQNSLGCIGECGVDSGFEAPRLGEQGGDFGYGGYLFPGYGVGKQDVYYGVAETSPPLWAGQENATPTSVLFSSASSSSSSSAKARAGPPGAHRSPATSAGPELAGLPRRPPGEPLQGFSKLGGGGLRSPGGGRDCMVCFESEVTAALVPCGHNLFCMECAVRICERTDPECPVCHITATQAIRIFS
Take B1: in the experiment with GFP-RIG-I, the binding entry was “binds”.

B2: endogenous MEX3A (protein, UniProt A1L020 1-520)
chain: MPSLVVSGIMERNGGFGELGCFGGSAKDRGLLEDERALQLALDQLCLLGLGEPPAPTAGEDGGGGGGGAPAQPAAPPQPAPPPPPAAPPAAPTAAPAAQTPQPPTAPKGASDAKLCALYKEAELRLKGSSNTTECVPVPTSEHVAEIVGRQGCKIKALRAKTNTYIKTPVRGEEPVFMVTGRREDVATARREIISAAEHFSMIRASRNKSGAAFGVAPALPGQVTIRVRVPYRVVGLVVGPKGATIKRIQQQTNTYIITPSRDRDPVFEITGAPGNVERAREEIETHIAVRTGKILEYNNENDFLAGSPDAAIDSRYSDAWRVHQPGCKPLSTFRQNSLGCIGECGVDSGFEAPRLGEQGGDFGYGGYLFPGYGVGKQDVYYGVAETSPPLWAGQENATPTSVLFSSASSSSSSSAKARAGPPGAHRSPATSAGPELAGLPRRPPGEPLQGFSKLGGGGLRSPGGGRDCMVCFESEVTAALVPCGHNLFCMECAVRICERTDPECPVCHITATQAIRIFS
Consider B2, for which the binding entry in experiment [1] and in experiment [2] was “binds” each time.
